Test results from PMC2764089.

By UniProt entry, the sequences of proteins in these tests, tags left out.
UniProt P10591: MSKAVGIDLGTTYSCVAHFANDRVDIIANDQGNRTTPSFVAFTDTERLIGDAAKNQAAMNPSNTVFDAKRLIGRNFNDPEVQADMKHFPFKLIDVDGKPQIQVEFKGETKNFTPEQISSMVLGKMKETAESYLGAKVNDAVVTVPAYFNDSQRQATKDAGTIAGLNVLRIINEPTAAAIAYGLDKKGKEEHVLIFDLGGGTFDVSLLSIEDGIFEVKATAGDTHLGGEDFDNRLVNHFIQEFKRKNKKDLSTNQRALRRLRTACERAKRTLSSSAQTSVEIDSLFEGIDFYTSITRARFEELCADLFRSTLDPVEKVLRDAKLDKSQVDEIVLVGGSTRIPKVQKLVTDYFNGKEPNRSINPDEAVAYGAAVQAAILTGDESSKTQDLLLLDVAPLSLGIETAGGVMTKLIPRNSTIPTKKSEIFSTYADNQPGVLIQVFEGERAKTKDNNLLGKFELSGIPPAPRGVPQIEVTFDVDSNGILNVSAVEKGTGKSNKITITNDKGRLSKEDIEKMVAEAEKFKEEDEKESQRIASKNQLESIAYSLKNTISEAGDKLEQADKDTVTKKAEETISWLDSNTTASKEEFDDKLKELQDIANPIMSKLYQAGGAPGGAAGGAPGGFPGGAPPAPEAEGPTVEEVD

Target: T1, GST-Spc105p (S. cerevisiae) (UniProt P53148)
T1 sequence: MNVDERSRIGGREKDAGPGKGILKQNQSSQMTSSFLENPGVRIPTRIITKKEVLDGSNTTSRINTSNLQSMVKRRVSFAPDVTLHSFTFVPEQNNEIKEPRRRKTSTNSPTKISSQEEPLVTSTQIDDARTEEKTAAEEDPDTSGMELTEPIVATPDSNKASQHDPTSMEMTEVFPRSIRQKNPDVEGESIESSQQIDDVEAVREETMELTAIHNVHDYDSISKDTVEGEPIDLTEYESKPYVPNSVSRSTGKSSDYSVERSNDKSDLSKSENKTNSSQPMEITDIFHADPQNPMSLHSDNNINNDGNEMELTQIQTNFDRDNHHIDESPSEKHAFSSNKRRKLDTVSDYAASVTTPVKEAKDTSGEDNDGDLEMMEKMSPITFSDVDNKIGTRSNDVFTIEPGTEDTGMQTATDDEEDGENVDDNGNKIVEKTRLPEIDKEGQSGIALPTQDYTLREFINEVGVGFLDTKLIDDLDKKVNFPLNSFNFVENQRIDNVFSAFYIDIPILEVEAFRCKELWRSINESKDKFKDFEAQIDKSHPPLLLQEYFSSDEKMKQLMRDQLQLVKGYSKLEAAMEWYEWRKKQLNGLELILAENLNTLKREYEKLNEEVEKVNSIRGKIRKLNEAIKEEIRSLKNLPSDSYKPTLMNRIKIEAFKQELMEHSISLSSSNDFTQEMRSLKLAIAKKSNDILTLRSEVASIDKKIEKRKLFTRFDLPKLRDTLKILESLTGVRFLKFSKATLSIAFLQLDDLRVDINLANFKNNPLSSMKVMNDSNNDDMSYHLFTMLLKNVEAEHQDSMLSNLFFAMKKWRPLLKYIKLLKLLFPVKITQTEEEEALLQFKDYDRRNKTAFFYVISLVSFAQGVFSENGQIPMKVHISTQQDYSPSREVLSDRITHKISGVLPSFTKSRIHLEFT
Assay: affinity purification with mass spectrometry; GST-Spc105p (GAL1 promoter) isolated from whole yeast cell extracts on glutathione beads, washed extensively, released with Precision protease; SDS-PAGE species identified by mass spectrometry

binding: binds
Substance: Ssa1p (from UniProt P10591 1-642)

Results are given in words; binding and its absence hold for the method and conditions named. Binding seen in cells or lysates may run through a third protein. These calls come from enrichment with a bait or labelling near it, and not all partners need be listed. Where a sequence is shown, tags or fusion partners need not be part of it.
